In patent US20260035728A1:
These are yes or no findings as the source states them, for the method shown. Some results given as binding are weak or reduced against the parent protein; the word gives no strength. One block for each binder: values may come before it.

The chains behind the UniProt entries cited, without tags or fusion partners. Where a name states a change or a piece, a line headed by the entry shows the natural chain unless it says otherwise. Residues count along the entry.
UniProt P00742, residues 41-488: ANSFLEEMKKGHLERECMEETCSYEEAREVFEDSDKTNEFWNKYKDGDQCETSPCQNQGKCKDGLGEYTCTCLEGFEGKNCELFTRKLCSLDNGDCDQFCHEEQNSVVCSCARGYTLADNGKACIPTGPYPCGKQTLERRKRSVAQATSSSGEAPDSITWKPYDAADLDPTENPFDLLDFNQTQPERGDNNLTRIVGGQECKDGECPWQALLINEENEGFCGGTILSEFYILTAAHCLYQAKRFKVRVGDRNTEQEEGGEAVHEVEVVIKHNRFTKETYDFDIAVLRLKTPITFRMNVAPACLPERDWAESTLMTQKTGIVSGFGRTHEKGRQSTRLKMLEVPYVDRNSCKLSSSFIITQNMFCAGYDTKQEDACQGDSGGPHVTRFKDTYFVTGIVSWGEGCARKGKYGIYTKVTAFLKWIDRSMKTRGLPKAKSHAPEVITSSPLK
UniProt P40238: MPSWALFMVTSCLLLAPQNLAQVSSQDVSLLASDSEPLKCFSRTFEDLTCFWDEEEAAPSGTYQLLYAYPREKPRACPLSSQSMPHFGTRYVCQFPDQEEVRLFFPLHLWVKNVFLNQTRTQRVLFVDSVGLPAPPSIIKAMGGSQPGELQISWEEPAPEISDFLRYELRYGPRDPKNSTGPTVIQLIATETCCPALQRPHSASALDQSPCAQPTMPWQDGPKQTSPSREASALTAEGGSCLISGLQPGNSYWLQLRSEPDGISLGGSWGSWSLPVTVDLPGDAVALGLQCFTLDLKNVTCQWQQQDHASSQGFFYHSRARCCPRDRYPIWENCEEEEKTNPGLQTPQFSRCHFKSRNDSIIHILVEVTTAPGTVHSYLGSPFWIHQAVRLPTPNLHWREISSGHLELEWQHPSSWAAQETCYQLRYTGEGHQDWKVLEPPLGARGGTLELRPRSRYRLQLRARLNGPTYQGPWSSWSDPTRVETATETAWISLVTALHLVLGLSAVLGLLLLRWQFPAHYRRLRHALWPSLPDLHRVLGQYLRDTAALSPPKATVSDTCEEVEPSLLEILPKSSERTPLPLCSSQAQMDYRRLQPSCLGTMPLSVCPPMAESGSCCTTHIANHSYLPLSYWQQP

Tests used:
[1] = biological target: Factor X (Enzyme Research Laboratories) (UniProt P00742); experiment: Factor X ELISA (FIG. 5)
[2] = biological target: Factor X (Enzyme Research Laboratories) (UniProt P00742); experiment: Factor X ELISA (FIG. 8)
[3] = biological target: MG10-GST fusion protein (fusion protein of GST and MG10, Gln213 to Ala231 of human MpI) (human) (UniProt P40238); experiment: affinity chromatography on MG10-GST fusion protein-immobilized column, elution with 100 mM Glycine-HCl (pH 3.5)
[4] = biological target: MG10-GST fusion protein (fusion protein of GST and MG10, Gln213 to Ala231 of human MpI) (human) (UniProt P40238); experiment: affinity chromatography on MG10-GST fusion protein-immobilized column

binding [3]: binds
B2: humanized anti-human MpI antibody hVB22B u2-wz4 sc(Fv)2 (protein)
chain: QVQLVQSGPEVKKPGASVKVSCKASGYTFTNSWMNWVRQRPGKGLEWIGRIYPGDGETIYNGKFRVRVTITADESTSTAYMQLSSLRSEDTAVYYCARGYDDYSFAYWGQGTTVTVSSGGGGSGGGGSGGGGSDIVMTQSPLSLPVTPGEPASISCRSSKSLLHSNGNTYLYWFLQKPGQSPQLLIYRMSNLASGVPDRFSGSGSGTDFTLKISRVEAEDVGVYYCMQHIEYPFTFGQGTKLEIKGGGGSGGGGSGGGGSQVQLVQSGPEVKKPGASVKVSCKASGYTFTNSWMNWVRQRPGKGLEWIGRIYPGDGETIYNGKFRVRVTITADESTSTAYMQLSSLRSEDTAVYYCARGYDDYSFAYWGQGTTVTVSSGGGGSGGGGSGGGGSDIVMTQSPLSLPVTPGEPASISCRSSKSLLHSNGNTYLYWFLQKPGQSPQLLIYRMSNLASGVPDRFSGSGSGTDFTLKISRVEAEDVGVYYCMQHIEYPFTFGQGTKLEIK

binding [4]: binds
B4: hVB22B u2-wz4(v1) sc(Fv)2 (protein)
chain: QVQLVQSGPEVKKPGASVKVSCKASGYTFTNSWMNWVRERPGKGLEWIGRIYPGDGETIYNGKFRVRVTITADESTSTAYMQLSSLRSEDTAVYYCARGYDDYSFAYWGQGTTVTVSSGGGGSGGGGSGGGGSDIVMTQSPLSLPVTPGEPASISCRSSKSLLHSNGNTYLYWFLEKPGQSPQLLIYRMSNLASGVPDRFSGSGSGTDFTLKISRVEAEDVGVYYCMQHIEYPFTFGQGTKLEIKGGGGSGGGGSGGGGSQVQLVQSGPEVKKPGASVKVSCKASGYTFTNSWMNWVRKRPGKGLEWIGRIYPGDGETIYNGKFRVRVTITADESTSTAYMQLSSLRSEDTAVYYCARGYDDYSFAYWGQGTTVTVSSGGGGSGGGGSGGGGSDIVMTQSPLSLPVTPGEPASISCRSSKSLLHSNGNTYLYWFLKKPGQSPQLLIYRMSNLASGVPDRFSGSGSGTDFTLKISRVEAEDVGVYYCMQHIEYPFTFGQGTKLEIK

More lines, now with the values behind:

B1: humanized SB04 antibody (VH: hSB04e, VL: hSBVL-F3f), wild type (antibody, V domains shown)
VH: QVQLVQSGAEVKKPGASVKVSCKASGYTFTHFVLHWVRQAPGQGLEWMGYIIPYNDGTKYNEKFKGRVTMTSDTSTSTVYMELSILRSEDTAVYFCARGNRYDVGSYAMDYWGQGTTVTSVS
VL: DIVMTQSPDSLAVSLGERATINCKSSQSLLYSSNQKNYLAWYQQKPGQPPKLLIYWASTRESGVPDRFSGSGSGTDFTLKISRVQAEDVGVYYCQQYYRFPYTFGGGTKVEIK
binding [1]: binds
binding [2]: binds

B3: hVB22B u2-wz4(v3) sc(Fv)2 (protein)
chain: QVQLVQSGPEVKKPGASVKVSCKASGYTFTNSWMNWVRERPGKGLEWIGRIYPGDGETIYNGKFRVRVTITADESTSTAYMQLSSLRSEDTAVYYCARGYDDYSFAYWGQGTTVTVSSGGGGSGGGGSGGGGSDIVMTQSPLSLPVTPGEPASISCRSSKSLLHSNGNTYLYWFLKKPGQSPQLLIYRMSNLASGVPDRFSGSGSGTDFTLKISRVEAEDVGVYYCMQHIEYPFTFGQGTKLEIKGGGGSGGGGSGGGGSQVQLVQSGPEVKKPGASVKVSCKASGYTFTNSWMNWVRKRPGKGLEWIGRIYPGDGETIYNGKFRVRVTITADESTSTAYMQLSSLRSEDTAVYYCARGYDDYSFAYWGQGTTVTVSSGGGGSGGGGSGGGGSDIVMTQSPLSLPVTPGEPASISCRSSKSLLHSNGNTYLYWFLEKPGQSPQLLIYRMSNLASGVPDRFSGSGSGTDFTLKISRVEAEDVGVYYCMQHIEYPFTFGQGTKLEIK
binding [4]: binds
